PubChem BioAssay AID1224830 | NIAID – 2016

- Purpose: 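Genes whose knock-down alters the TNF-alpha reporter response to LPS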 (primary screen)
- System: human THP-1 monocytic leukaemia cells, TNF dual-luciferase reporter clone, PMA-differentiated to macrophage-like cells
- Reagents: siRNA pool against human genes, 50 nM
- Duration: LPS for 4 h, given about 3 days after siRNA transfection
- Challenge: bacterial LPS (TLR4 ligand), 10 ng/ml
- Detection: 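Ratio of firefly to renilla light, scaled to the plate median and expressed as a robust z-score per replicate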
- Scale: TNF reporter robust z-score: higher = stronger TNF reporter response to LPS
- Rule for the call: 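a well is active when its z-score exceeds 2.8 or falls below -1.5; control wells carry no call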
This is one part, drawn at random, of about 18,000 reagents. About 2,900 of them (16%) count as active. 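Calls are made per well; low scores hint the gene aids the LPS response, high scores that it dampens it.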 Unmarked entries are inactive. Repeated entries: four replicate wells of each siRNA pool. Reagent sequences are not shown.

target gene	TNF reporter robust z-score
C4orf33	-0.74
C4orf33	-0.09
C4orf33	0.31
C4orf33	-0.17
SHPK	0.1
SHPK	0.27
SHPK	1.54
SHPK	1.9
MCF2L2	-0.03
MCF2L2	0.16
MCF2L2	-0.27
MCF2L2	0.37
CA3	-1.03
CA3	0.48
CA3	0.58
CA3	0.94
APOBEC3H	1.69
APOBEC3H	0.86
APOBEC3H	0.58
APOBEC3H	0.76
PRKACG	-0.24
PRKACG	0.62
PRKACG	-0.44
PRKACG	-0.45
RMP24	-1.27
RMP24	-0.66
RMP24	-1.01
RMP24	-0.82
SDHAF1	-0.62
SDHAF1	-0.64
SDHAF1	-0.55
SDHAF1	-0.11
PPP2R5E	-1.34
PPP2R5E	-1.97 (active)
PPP2R5E	-1.88 (active)
PPP2R5E	-1.77 (active)
OR9A2	0.26
OR9A2	0.51
OR9A2	0.1
OR9A2	3.54 (active)
PCDHB16	-0.41
PCDHB16	2.15
PCDHB16	0.47
PCDHB16	2.22
SCARF2	1.02
SCARF2	3.72 (active)
SCARF2	1.91
SCARF2	0.44
ERN2	-0.45
ERN2	-0.3
ERN2	-0.34
ERN2	0.16
SNRNP25	-1.18
SNRNP25	0.05
SNRNP25	-0.78
SNRNP25	0.26
LRRK2	0.23
LRRK2	1.17
LRRK2	0.4
LRRK2	0.94
NAA16	0.45
NAA16	-0.69
NAA16	0.51
NAA16	1.48
ADH6	1.04
ADH6	2
ADH6	0.73
ADH6	2.55
SULT6B1	-0.18
SULT6B1	-0.42
SULT6B1	-0.44
SULT6B1	0.15
C19orf47	0.13
C19orf47	-0.72
C19orf47	0.02
C19orf47	-0.25
FBN1	-0.24
FBN1	0.28
FBN1	-0.2
FBN1	-0.42
MPPED2	-0.98
MPPED2	0.13
MPPED2	-0.64
MPPED2	-0.88
ZBTB4	-0.52
ZBTB4	-1.27
ZBTB4	-1.22
ZBTB4	-1.37
RETNLB	-1.14
RETNLB	-0.99
RETNLB	-0.21
RETNLB	-0.28
PCSK7	-0.71
PCSK7	0.41
PCSK7	-0.73
PCSK7	0.02
KRTAP9-4	0.37
KRTAP9-4	3.01 (active)
KRTAP9-4	2.75
KRTAP9-4	2.33
OPTN	-1.07
OPTN	-0.96
OPTN	-1.18
OPTN	-1.25
NXPH1	-1.12
NXPH1	1.29
NXPH1	0.32
NXPH1	0.9
ZYG11B	2.12
ZYG11B	1.81
ZYG11B	-0.29
ZYG11B	1.36

14 entries from above, set out differently:
target gene,TNF reporter robust z-score
ZBTB4,-1.27
ZBTB4,-1.22
ZBTB4,-1.37
RETNLB,-1.14
RETNLB,-0.99
RETNLB,-0.21
RETNLB,-0.28
PCSK7,-0.71
PCSK7,0.41
PCSK7,-0.73
PCSK7,0.02
KRTAP9-4,0.37
KRTAP9-4,3.01 (active)
KRTAP9-4,2.75
